From article PMC7335067
These are yes or no findings as the source states them, for the method shown. In cells and extracts the contact can be indirect. Some entries that bind do so weakly or less than the wild type. Sequences can lack the tags named with a protein.

Chains of the proteins cited; added tags and fusions are not shown.
UniProt Q13596: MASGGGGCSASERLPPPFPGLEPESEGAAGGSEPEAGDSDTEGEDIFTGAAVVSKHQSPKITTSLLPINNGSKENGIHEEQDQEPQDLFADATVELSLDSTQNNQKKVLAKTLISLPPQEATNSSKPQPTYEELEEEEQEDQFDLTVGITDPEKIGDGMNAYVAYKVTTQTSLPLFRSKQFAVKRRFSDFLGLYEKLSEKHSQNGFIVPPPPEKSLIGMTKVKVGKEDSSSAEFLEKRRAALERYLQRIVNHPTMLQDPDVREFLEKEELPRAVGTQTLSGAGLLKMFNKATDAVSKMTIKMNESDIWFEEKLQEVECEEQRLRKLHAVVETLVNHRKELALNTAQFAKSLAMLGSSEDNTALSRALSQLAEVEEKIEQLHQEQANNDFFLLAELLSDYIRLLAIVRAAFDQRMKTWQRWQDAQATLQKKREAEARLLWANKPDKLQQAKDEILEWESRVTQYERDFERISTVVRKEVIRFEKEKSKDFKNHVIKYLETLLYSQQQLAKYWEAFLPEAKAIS

T1: TMEM16K-V5-GFP11 (mouse) (UniProt Q8BH79)
T1 sequence: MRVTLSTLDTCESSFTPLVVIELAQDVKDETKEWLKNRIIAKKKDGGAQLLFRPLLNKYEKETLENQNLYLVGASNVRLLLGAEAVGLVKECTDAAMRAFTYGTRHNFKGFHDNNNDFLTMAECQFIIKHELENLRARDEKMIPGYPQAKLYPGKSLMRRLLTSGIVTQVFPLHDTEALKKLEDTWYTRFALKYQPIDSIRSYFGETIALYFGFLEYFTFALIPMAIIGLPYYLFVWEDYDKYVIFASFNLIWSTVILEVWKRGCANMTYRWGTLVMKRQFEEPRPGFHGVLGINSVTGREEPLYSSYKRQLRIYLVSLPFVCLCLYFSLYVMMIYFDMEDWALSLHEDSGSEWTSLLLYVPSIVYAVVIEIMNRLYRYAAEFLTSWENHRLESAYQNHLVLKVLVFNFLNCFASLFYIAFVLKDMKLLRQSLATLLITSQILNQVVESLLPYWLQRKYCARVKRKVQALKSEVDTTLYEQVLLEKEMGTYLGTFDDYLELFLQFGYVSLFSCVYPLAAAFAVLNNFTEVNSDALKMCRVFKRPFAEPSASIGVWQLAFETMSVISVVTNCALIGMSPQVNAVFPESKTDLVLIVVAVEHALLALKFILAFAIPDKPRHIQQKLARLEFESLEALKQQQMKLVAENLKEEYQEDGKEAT

B1: OSBPL8 tagged with the GFP(1-10) fragment (protein, UniProt Q9BZF1 1-889)
chain: MEGGLADGEPDRTSLLGDSKDVLGPSTVVANSDESQLLTPGKMSQRQGKEAYPTPTKDLHQPSLSPASPHSQGFERGKEDISQNKDESSLSMSKSKSESKLYNGSEKDSSTSSKLTKKESLKVQKKNYREEKKRATKELLSTITDPSVIVMADWLKIRGTLKSWTKLWCVLKPGVLLIYKTQKNGQWVGTVLLNACEIIERPSKKDGFCFKLFHPLEQSIWAVKGPKGEAVGSITQPLPSSYLIIRATSESDGRCWMDALELALKCSSLLKRTMIREGKEHDLSVSSDSTHVTFYGLLRANNLHSGDNFQLNDSEIERQHFKDQDMYSDKSDKENDQEHDESDNEVMGKSEESDTDTSERQDDSYIEPEPVEPLKETTYTEQSHEELGEAGEASQTETVSEENKSLIWTLLKQVRPGMDLSKVVLPTFILEPRSFLDKLSDYYYHADFLSEAALEENPYFRLKKVVKWYLSGFYKKPKGLKKPYNPILGETFRCLWIHPRTNSKTFYIAEQVSHHPPISAFYVSNRKDGFCLSGSILAKSKFYGNSLSAILEGEARLTFLNRGEDYVMTMPYAHCKGILYGTMTLELGGTVNITCQKTGYSAILEFKLKPFLGSSDCVNQISGKLKLGKEVLATLEGHWDSEVFITDKKTDNSEVFWNPTPDIKQWRLIRHTVKFEEQGDFESEKLWQRVTRAINAKDQTEATQEKYVLEEAQRQAARDRKTKNEEWSCKLFELDPLTGEWHYKFADTRPWDPLNDMIQFEKDGVIQTKVKHRTPMVSVPKMKHKPTRQQKKVAKGYSSPEPDIQDSSGSEAQSVKPSTRRKKGIELGDIQSSIESIKQTQEEIKRNIMALRNHLVSSTPATDYFLQQKDYFIIFLLILLQVIINFMFK
B2: OSBPL11 tagged with the GFP(1-10) fragment (protein, UniProt Q9BXB4 1-747)
chain: MQGGEPVSTMKVSESEGKLEGQATAVTPNKNSSCGGGISSSSSSRGGSAKGWQYSDHMENVYGYLMKYTNLVTGWQYRFFVLNNEAGLLEYFVNEQSRNQKPRGTLQLAGAVISPSDEDSHTFTVNAASGEQYKLRATDAKERQHWVSRLQICTQHHTEAIGKNNPPLKSRSFSLASSSNSPISQRRPSQNAISFFNVGHSKLQSLSKRTNLPPDHLVEVREMMSHAEGQQRDLIRRIECLPTSGHLSSLDQDLLMLKATSMATMNCLNDCFHILQLQHASHQKGSLPSGTTIEWLEPKISLSNHYKNGADQPFATDQSKPVAVPEEQPVAESGLLAREPEEINADDEIEDTCDHKEDDLGAVEEQRSVILHLLSQLKLGMDLTRVVLPTFILEKRSLLEMYADFMSHPDLFIAITNGATAEDRMIRFVEYYLTSFHEGRKGAIAKKPYNPIIGETFHCSWKMPKSEVASSVFSSSSTQGVTNHAPLSGESLTQVGSDCYTVRFVAEQVSHHPPVSGFYAECTERKMCVNAHVWTKSKFLGMSIGVTMVGEGILSLLEHGEEYTFSLPCAYARSILTVPWVELGGKVSVNCAKTGYSASITFHTKPFYGGKLHRVTAEVKHNITNTVVCRVQGEWNSVLEFTYSNGETKYVDLTKLAVTKKRVRPLEKQDPFESRRLWKNVTDSLRESEIDKATEHKHTLEERQRTEERHRTETGTPWKTKYFIKEGDGWVYHKPLWKIIPTTQPAE
B3: OSBPL9 tagged with the GFP(1-10) fragment (protein, UniProt Q96SU4 1-736)
chain: MASIMEGPLSKWTNVMKGWQYRWFVLDYNAGLLSYYTSKDKMMRGSRRGCVRLRGAVIGIDDEDDSTFTITVDQKTFHFQARDADEREKWIHALEETILRHTLQLQGLDSGFVPSVQDFDKKLTEADAYLQILIEQLKLFDDKLQNCKEDEQRKKIETLKETTNSMVESIKHCIVLLQIAKDQSNAEKHADGMISTINPVDAIYQPSPLEPVISTMPSQTVLPPEPVQLCKSEQRPSSLPVGPVLATLGHHQTPTPNSTGSGHSPPSSSLTSPSHVNLSPNTVPEFSYSSSEDEFYDADEFHQSGSSPKRLIDSSGSASVLTHSSSGNSLKRPDTTESLNSSLSNGTSDADLFDSHDDRDDDAEAGSVEEHKSVIMHLLSQVRLGMDLTKVVLPTFILERRSLLEMYADFFAHPDLFVSISDQKDPKDRMVQVVKWYLSAFHAGRKGSVAKKPYNPILGEIFQCHWTLPNDTEENTELVSEGPVPWVSKNSVTFVAEQVSHHPPISAFYAECFNKKIQFNAHIWTKSKFLGMSIGVHNIGQGCVSCLDYDEHYILTFPNGYGRSILTVPWVELGGECNINCSKTGYSANIIFHTKPFYGGKKHRITAEIFSPNDKKSFCSIEGEWNGVMYAKYATGENTVFVDTKKLPIIKKKVRKLEDQNEYESRSLWKDVTFNLKIRDIDAATEAKHRLEERQRAEARERKEKEIQWETRLFHEDGECWVYDEPLLKRLGAAKH
B4: TMEM16K-V5-GFP11 (protein, UniProt Q8BH79 1-659)
chain: T1 sequence

target: T1, TMEM16K-V5-GFP11 (mouse); test: split reporter; split-GFP: COS-7 cells double transfected with a GFP11-tagged and a GFP(1-10)-tagged construct, GFP channel read by confocal microscopy

binding | Molecule
no binding | VPS26 tagged with the GFP(1-10) fragment (from UniProt O75436 1-327)
no binding | SNX1 tagged with the GFP(1-10) fragment (from UniProt Q13596 1-522)
no binding | B1
no binding | B2
no binding | B3
binds | B4
